Test results as given in patent publication US7605280B2, “Anthraquinone and its derivatives” (Biostatus Limited, priority 1998, dated 2009).
At least one structure is not confirmed: it was looked up by name or label, or the drawing left a doubt.

Tests used:
[1] = tested on: DNA; assay: DNA binding constant
[2] = tested on: calf thymus DNA; assay: DNA-DRAQ5 fluorescence on addition of calf thymus DNA; assay type: physicochemical; conditions: molar DNA:DRAQ5 ratio of 64; 647 nm excitation
[3] = Spectral analysis: absorbance and fluorescence spectra; assay type: physicochemical; conditions: for Emλmax: 647 nm excitation, DRAQ5 alone
Experimental: Absorbance spectra were obtained using a Perkin-Elmer Lambda 16 UV spectrometer and a 10 μM solution of agent dissolved in dichloromethane and measured in a 1 cm path length quartz-silica cuvette. Fluorescence spectra for a 0.8 ml solution of 20 μM DRAQ5 in a 1 cm path length semi-micro quartz silica cuvette were determined by exciting at 647 nm wavelength or monitoring emission at 670 nm wavelength. Fluorescence measurements were made on a Perkin Elmer LS50 spectrofluorometer with slit widths set at 10 nm. The spectrofluorometer was equipped with a red-sensitive photomultiplier tube (PMT; type R928; Hamamatsu Photonics KK, Japan). Data were accumulated for four scans for each condition and exported into a spreadsheet program to correct values for the buffer control and to determine emission maxima. DNA-DRAQ5 fluorescence was measured by the addition of microlitre volumes of concentrated calf thymus DNA solutions to the cuvette with mixing. Both agent and DNA were prepared in DNA binding buffer (0.05 M sodium phosphate, pH 6.2, 0.05 M NaCl, 0.001 M EDTA; 3). The spectra shown were corrected for the buffer background and not for the spectral sensitivity of the PMT. Rhodamine 123 spectra were generated in DNA binding buffer using either 488/5 nm excitation or monitoring emission at 530/5 nm. Previously published excitation and emission spectra, were obtained from original source files and normalised for peak intensity.

With CN(C)CCNc1ccc(O)c2c1C(=O)c1c(O)ccc(NCCN(C)C)c1C2=O [DRAQ5] the DNA binding constant [1] was “approximately 10e7 M-1”, the “Emλmax with DNA (red shift)” value [2] was 697 nm and the Exλmax [3] was roughly 647 nm. For the same compound, the Emλmax [3] was 677.5 nm, the Emλmax ([3]; listed as compound (II)) was “about 677.5 nm” and the “extinction coefficient at 676 nm wavelength” value ([3]; 676 nm) was 20949 cm⁻¹ mol⁻¹.
